Laboratory results taken from patent publication US6838477B2, “Lactacystin analogs” (President and Fellows of Harvard College, priority 1995, dated 2005).
For at least one compound, name, drawing or mass did not settle the structure.

System: Neuro 2A neuroblastoma cells; MG-63 osteosarcoma cells
Experiment: Biological activity: neurite outgrowth in Neuro 2A cells and inhibition of cell cycle progression in MG-63 cells
Assay type: cell-based
Details: ability to induce neurite outgrowth in Neuro 2A cells and to inhibit cell cycle progression in MG-63 cells; + active, − inactive

Compound: CC(=O)NC(CSC(=O)C1(C(O)C(C)C)NC(=O)C(C)C1O)C(=O)O [(6R,7S)Lactacystin (6-epi,7-epi), (6R,7S)-lactacystin]
- Biological activity of compound: −
